Data as given in PubChem BioAssay AID1224831 (NIAID, 2016).

- Test: 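Genes that support or restrain LPS-induced TNF-alpha reporter activity in macrophage-like cells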 (follow-up of hits)
- System: human THP-1 B5 monocytic leukaemia cells carrying a TNF promoter luciferase reporter, made macrophage-like with PMA
- Knock-down reagent: single siRNA against human genes, 50 nM
- Time to read-out: about 68 h of knock-down, then 4 h LPS
- Treatment: LPS (Salmonella minnesota, TLR-grade) at 10 ng/ml for 4 h; PMA 5 ng/ml present during knock-down
- Measurement: 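Firefly to renilla luciferase ratio of a TNF promoter reporter after 4 h LPS, scaled to plate median, turned into robust z-score, averaged over replicates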
- Scale: TNF reporter z-score: higher = stronger LPS-induced TNF reporter signal; z-score, median over gene's siRNAs: higher = stronger TNF reporter signal across the gene's siRNAs
- Hit rule: 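Two-sided call: reduced or raised TNF reporter signal counts as active once mean z reaches about -1 or below, or about 1.5 or above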
- Meaning of the calls: active = changed TNF reporter (either direction); inactive = little change
In all, the deposit lists about 3,500 reagents; shown is a random part of them. In the full data, 731 (21%) were called active. 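Active means either lowered or raised reporter signal; the gene-median score did not drive the per-siRNA calls.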

Against ATAD3A [SID315485817], the entry reads TNF reporter z-score, replicate mean 0.19; z-score, median over gene's siRNAs -0.25; inactive.
ATAD3A [SID315485818] scored TNF reporter z-score, replicate mean -0.09; z-score, median over gene's siRNAs -0.25; inactive.
ATAD3A [SID315485819] scored TNF reporter z-score, replicate mean -0.75; z-score, median over gene's siRNAs -0.25; inactive.
For ATAD3A [SID315485820], the entry reads TNF reporter z-score, replicate mean -0.41; z-score, median over gene's siRNAs -0.25; inactive.
For ATAD3A [SID315485821], the entry reads TNF reporter z-score, replicate mean 0.62; z-score, median over gene's siRNAs -0.25; inactive.
Silencing of ATAD3A [SID315485822] gave: TNF reporter z-score, replicate mean -0.56; z-score, median over gene's siRNAs -0.25; inactive.
With knock-down of WDR45 [SID315483594] the results were TNF reporter z-score, replicate mean 0.43; z-score, median over gene's siRNAs 0.58; inactive.
For WDR45 [SID315483595], the entry reads TNF reporter z-score, replicate mean 0.73; z-score, median over gene's siRNAs 0.58; inactive.
WDR45 [SID315483596] scored TNF reporter z-score, replicate mean -0.73; z-score, median over gene's siRNAs 0.58; inactive.
WDR45 [SID315483597] showed TNF reporter z-score, replicate mean 0.06; z-score, median over gene's siRNAs 0.58; inactive.
With knock-down of WDR45 [SID315483598], the record shows TNF reporter z-score, replicate mean 1.15; z-score, median over gene's siRNAs 0.58; inactive.
After knock-down of WDR45 [SID315483599], the record shows TNF reporter z-score, replicate mean 2.26; z-score, median over gene's siRNAs 0.58; active.

As entered above:
WDR45 [SID315483595], z-score, median over gene's siRNAs: 0.58
WDR45 [SID315483599], Call = active
ATAD3A [SID315485822], TNF reporter z-score, replicate mean → -0.56

Additional records follow:
Against LCN8 [SID315487752], the values are TNF reporter z-score, replicate mean -0.01; z-score, median over gene's siRNAs 0.25; inactive.
Knock-down of LCN8 [SID315487753] resulted in: TNF reporter z-score, replicate mean 0.51; z-score, median over gene's siRNAs 0.25; inactive.
With knock-down of LCN8 [SID315487754], the record shows TNF reporter z-score, replicate mean 0.63; z-score, median over gene's siRNAs 0.25; inactive.
Knock-down of LCN8 [SID315487755] gave: TNF reporter z-score, replicate mean -0.22; z-score, median over gene's siRNAs 0.25; inactive.
After knock-down of LCN8 [SID315487756], the record shows TNF reporter z-score, replicate mean -0.98; z-score, median over gene's siRNAs 0.25; inactive.
Against LCN8 [SID315487757] the deposit lists TNF reporter z-score, replicate mean 0.55; z-score, median over gene's siRNAs 0.25; inactive.
